In PubChem BioAssay AID493014 (National Center for Advancing Translational Sciences (NCATS), 2011):
The other results are listed elsewhere or left out. Further columns of the screen follow, without active or inactive calls. Most of these compounds were active or inconclusive in the main read-out, so they are no random draw. The note in brackets gives the kind of curve behind each potency; many fits are weak.

Assay: qHTS Assay to Find Inhibitors of Chronic Active B-Cell Receptor Signaling
Conditions: ABC-DLBCL IkBa-CBG/CBR reporter, luminescence ratio (green luciferase fused to IkBa over red control in TMD8 lymphoma cells), 4 h
Summary of the method: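 TMD8 ABC-DLBCL cells carrying doxycycline-inducible green luciferase fused to IkappaBalpha plus unfused red luciferase were exposed to compounds (up to 46 uM) for 4 hrs at 37C. Activity came from the overlap-corrected green/red luminescence ratio.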

[1] = measured here: CBR red luminescence, cell number
[2] = measured here: IkBa-CBG green luminescence

Row | SMILES | AC50 [1] | AC50 [2]
1 | CC(=O)c1ccc(NC(=O)CSc2nccn2CCc2ccccc2)cc1 | 0.0231 µM [falling, full curve, poor fit] | –
2 | O=S(=O)([N-]c1nc2ccccc2nc1-n1cc[n+](Cc2ccccc2)c1)c1ccccc1 | 7.08 µM [rising, full curve, poor fit] | –
3 | CN1CCN(C2=C(NS(=O)(=O)c3ccccc3)C(=O)c3ccccc3C2=O)CC1 | 35.5 µM [falling, single point] | –
4 | Nc1ncc(-c2ccccc2)c(-c2ccc(O)cc2O)n1 | 3.98 µM [falling, partial curve, poor fit] | –
5 | Cc1ccccc1N/C(SCc1ccc(Cl)cc1)=C(/C#N)C(N)=O | 16.4 µM [falling, single point] | –
6 | CCN(CC)c1nc(-c2ccc(C(=O)NN)cc2)nc(-c2ccc(C(=O)NN)cc2)n1 | 3.55 µM [falling, partial curve, poor fit] | –
7 | COc1ccc(OCC(=O)N/N=C(\C)CC(=O)Nc2cccc([N+](=O)[O-])c2)cc1 | 20 µM [falling, single point] | –
8 | CCCNc1nc(-c2cc(-c3ccc(Cl)cc3)on2)cc(C(C)C)n1 | 1.41 µM [rising, full curve, poor fit] | –
9 | CN(C)C(=O)c1ccc2c(c1)n(C)c(=O)n2C | 11.6 µM [rising, partial curve] | –
10 | CCCOC(=O)CSC1=C(C#N)C(c2ccccc2OC)C(C#N)C(=O)N1 (configuration not stated) | 1.3 µM [falling, partial curve, poor fit] | –
11 | O=C(NC(=S)NC(=O)c1ccccc1F)c1ccccc1F | 10.3 µM [falling, partial curve] | –
12 | CC(C)Oc1ccccc1C1CC(=O)Nc2cc3c(cc21)OCCO3 (configuration not stated) | 11.2 µM [rising, partial curve] | 17.8 µM [falling, partial curve]
13 | CCOC(=O)c1ccc(-c2c(-c3cc(OC)c(OC)c(OC)c3)noc2C)cc1F | 3.16 µM [rising, full curve] | 1.78 µM [falling, full curve, poor fit]
14 | C/C(CCC1CC(C)OC1=O)=N/Nc1nc(-c2ccccc2)cs1 (configuration not stated) | 6.51 µM [falling, partial curve] | –
15 | CN(Cc1ccc(OC(F)F)cc1)Cc1nc2c(Br)cc(Br)cc2c(=O)[nH]1 | 15.8 µM [falling, single point] | –
16 | O=[N+]([O-])c1ccc(-c2ccc(/C=N/n3cnnc3)o2)c(Br)c1 | 28.2 µM [falling, partial curve, poor fit] | –
17 | CCc1ccc(C2CC(c3ccccc3)Nc3nc(N)nn32)cc1 (configuration not stated) | 3.55 µM [rising, single point] | –
18 | Cc1csc(NC(=O)c2ccc3nc[nH]c3c2)n1 | 22.4 µM [falling, single point] | –
19 | O=C(C[n+]1ccccc1)Nc1nc2ccccc2s1 | 3.66 µM [falling, full curve] | –
20 | O=c1oc2ccccc2c2c1ncn2-c1ccccc1 | 0.517 µM [rising, full curve, poor fit] | 6.51 µM [falling, partial curve, poor fit]

Row | SMILES | AC50 [1] | AC50 [2]
21 | CSc1nnc(-c2ccccc2)c(=O)[nH]1 | 15.8 µM [falling, single point] | –
22 | CC1(C)Oc2ccc(C(=O)Nc3ccccc3F)cc2N(CC(=O)N2CCOCC2)C1=O | 1.78 µM [falling, partial curve, poor fit] | –
23 | CCOC(=O)N1CCN(C(=O)c2ccc3c(=O)n(CC4CCCO4)c(=S)[nH]c3c2)CC1 (configuration not stated) | 8.91 µM [rising, partial curve, poor fit] | –
24 | COc1ccc(OCC(O)Cn2cnc(-c3ccc(Br)cc3)c2)cc1 (configuration not stated) | 13 µM [rising, partial curve, poor fit] | –
25 | COc1ccc2nc3n(c(=O)c2c1)-c1cc(C)ccc1C(=O)NC3Cc1ccc(O)cc1 (configuration not stated) | 0.146 µM [rising, full curve, poor fit] | –
26 | N#Cc1nc(-c2ccc(OCc3ccccc3)cc2)oc1N1CCOCC1 | 0.259 µM [rising, full curve, poor fit] | –
27 | CC(C)CC(=O)Nc1cccc(C(=O)Nc2ccccc2C(=O)O)c1 | 11.6 µM [falling, partial curve] | –
28 | CSc1ccccc1NC(=O)c1cc(-c2cccs2)on1 | 2.82 µM [falling, partial curve, poor fit] | –
29 | O=C(COC(=O)c1ccc2ncsc2c1)Nc1cc([N+](=O)[O-])ccc1Cl | 0.58 µM [falling, partial curve, poor fit] | –
30 | O=C(N/N=C/c1ccc(-c2ccc(Cl)c(C(=O)O)c2)o1)c1cc2c(ccc3ccccc32)o1 | 1.26 µM [falling, full curve] | –
31 | CCC(C)(C)NC(=O)CN(C(=O)c1ccc(N2CCCC2)nc1)c1ccc(F)cc1 | 35.5 µM [falling, single point] | –
32 | Cc1c(-c2ncn[nH]2)sc(C#N)c1-c1ccccc1 | 35.5 µM [rising, single point] | –
33 | COc1ccc(C2(C)NC(=O)N(Cc3cc(Cl)cc4c3OCOC4)C2=O)cc1OC (configuration not stated) | 5.62 µM [rising, single point] | –
34 | COc1ccc(NC(=O)CCN2CCN(S(=O)(=O)c3cc(Cl)ccc3OC)CC2)cc1 | 3.66 µM [rising, partial curve] | –
35 | Cc1ccccc1Nc1nc(N)nc(COC(=O)c2ccc(S(=O)(=O)N(C)C)cc2)n1 | 20.6 µM [rising, single point] | –
36 | O=C(NNC(=O)c1ccc(Cl)s1)c1csc(N2CCOCC2)n1 | 10.3 µM [falling, partial curve] | –
37 | O=C1/C(=C/c2ccc(O)cc2)COc2ccccc21 | 4.47 µM [rising, single point] | –
38 | O=C(Cn1cc(S(=O)(=O)Cc2ccccc2F)c2ccccc21)N1CCOCC1 | 0.251 µM [falling, full curve, poor fit] | –
39 | NC(=O)COc1ccc(NC(=O)OCc2ccccc2)cc1 | 0.58 µM [rising, partial curve, poor fit] | –

Reformatted with tabs: entries from further up.
Row	SMILES	AC50 [1]	AC50 [2]
4	Nc1ncc(-c2ccccc2)c(-c2ccc(O)cc2O)n1	3.98 µM [falling, partial curve, poor fit]	–
6	CCN(CC)c1nc(-c2ccc(C(=O)NN)cc2)nc(-c2ccc(C(=O)NN)cc2)n1	3.55 µM [falling, partial curve, poor fit]	–
17	CCc1ccc(C2CC(c3ccccc3)Nc3nc(N)nn32)cc1 (configuration not stated)	3.55 µM [rising, single point]	–
18	Cc1csc(NC(=O)c2ccc3nc[nH]c3c2)n1	22.4 µM [falling, single point]	–
19	O=C(C[n+]1ccccc1)Nc1nc2ccccc2s1	3.66 µM [falling, full curve]	–
20	O=c1oc2ccccc2c2c1ncn2-c1ccccc1	0.517 µM [rising, full curve, poor fit]	6.51 µM [falling, partial curve, poor fit]
24	COc1ccc(OCC(O)Cn2cnc(-c3ccc(Br)cc3)c2)cc1 (configuration not stated)	13 µM [rising, partial curve, poor fit]	–
31	CCC(C)(C)NC(=O)CN(C(=O)c1ccc(N2CCCC2)nc1)c1ccc(F)cc1	35.5 µM [falling, single point]	–
35	Cc1ccccc1Nc1nc(N)nc(COC(=O)c2ccc(S(=O)(=O)N(C)C)cc2)n1	20.6 µM [rising, single point]	–
37	O=C1/C(=C/c2ccc(O)cc2)COc2ccccc21	4.47 µM [rising, single point]	–
39	NC(=O)COc1ccc(NC(=O)OCc2ccccc2)cc1	0.58 µM [rising, partial curve, poor fit]	–
